Our source for the binding values is article PMC3651266.

Amino acid sequences for entries named in this document (tags omitted). A change or cut given only in a name is not applied to a line headed by its entry.
UniProt O75914: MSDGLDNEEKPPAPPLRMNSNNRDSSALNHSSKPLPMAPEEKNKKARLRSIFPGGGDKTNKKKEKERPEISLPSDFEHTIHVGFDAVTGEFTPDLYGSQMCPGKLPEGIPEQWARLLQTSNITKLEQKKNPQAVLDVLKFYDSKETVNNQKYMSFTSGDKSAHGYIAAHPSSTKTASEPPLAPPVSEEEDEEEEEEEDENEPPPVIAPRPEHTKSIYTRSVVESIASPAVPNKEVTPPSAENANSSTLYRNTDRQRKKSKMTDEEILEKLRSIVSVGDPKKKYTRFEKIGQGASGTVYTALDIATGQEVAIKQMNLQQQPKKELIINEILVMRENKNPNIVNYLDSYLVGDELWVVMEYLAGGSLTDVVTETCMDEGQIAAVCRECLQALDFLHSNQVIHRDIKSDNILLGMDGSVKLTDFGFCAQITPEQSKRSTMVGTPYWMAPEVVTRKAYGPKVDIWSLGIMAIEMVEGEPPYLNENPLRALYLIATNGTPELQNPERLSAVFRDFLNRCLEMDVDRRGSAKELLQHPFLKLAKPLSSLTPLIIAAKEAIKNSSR

No constants are given. Whether binding was seen depends on the method and setting. Binding seen in cells or lysates may run through a third protein. Binding calls can cover weak binding; strength is not graded here.

For this experiment, the target named is M5 truncated mutant of Pak3 (N-terminal regulatory domain alone) (UniProt O75914). In words: co-IP; HEK293T cells co-transfected; lysis buffer 20 mM Tris-HCl pH 7.5, 100 mM NaCl, 0.1% NP-40, 0.5 mM EDTA; lysate with anti-Flag or anti-V5 at 4°C overnight, protein A-agarose, three washes; Western blotting with anti-Flag, anti-V5, anti-Tax.

With “HTLV-1 transactivator protein Tax (from UniProt P03409 1-353)”, the binding entry is “binds”.
